Library screening results

The chains behind the UniProt entries cited, without tags or fusion partners.
UniProt E9BF75, entry or part of it: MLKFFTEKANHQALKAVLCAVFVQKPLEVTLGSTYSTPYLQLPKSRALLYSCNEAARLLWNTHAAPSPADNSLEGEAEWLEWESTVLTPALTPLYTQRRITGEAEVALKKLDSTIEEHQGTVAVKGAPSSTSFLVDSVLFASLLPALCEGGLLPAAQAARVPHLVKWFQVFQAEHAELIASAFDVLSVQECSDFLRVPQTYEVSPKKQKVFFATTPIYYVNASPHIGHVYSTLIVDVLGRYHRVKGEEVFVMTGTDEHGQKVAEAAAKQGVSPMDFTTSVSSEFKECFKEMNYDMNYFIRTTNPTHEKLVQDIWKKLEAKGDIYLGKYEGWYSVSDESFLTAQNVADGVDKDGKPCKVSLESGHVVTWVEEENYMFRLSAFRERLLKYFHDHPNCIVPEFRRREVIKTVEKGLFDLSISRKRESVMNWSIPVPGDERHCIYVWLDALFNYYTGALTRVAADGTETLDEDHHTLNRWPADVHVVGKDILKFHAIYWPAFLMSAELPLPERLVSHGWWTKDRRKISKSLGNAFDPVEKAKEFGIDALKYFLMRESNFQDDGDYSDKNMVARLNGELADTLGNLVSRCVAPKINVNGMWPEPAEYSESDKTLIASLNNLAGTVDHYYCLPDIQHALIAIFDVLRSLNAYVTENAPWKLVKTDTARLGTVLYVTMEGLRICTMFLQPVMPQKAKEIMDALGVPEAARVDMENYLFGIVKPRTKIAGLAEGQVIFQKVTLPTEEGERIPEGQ

Measurements from “University of Dundee, Small-Polar-MMV Screening Library” (2021), ChEMBL document CHEMBL3988442.

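Methionyl-tRNA synthetase (putative), Leishmania donovani (UniProt E9BF75). Primary screen of methionyl-tRNA synthetase; the read-out is not stated. The test concentration is not given. Values are per cent inhibition. Of about 68,000 compounds tested this way, about 24 (0.035%) reached 50% or more in at least one test.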

Results are percentages, as filed. How 0% and 100% were set is not recorded. Most values in the screen are low, and negative values occur. This is an unselected part of the compounds tested.

* CCOc1ccccc1CNC(=O)Cn1ccc2c(C)nn(C)c2c1=O : 14.73%
* OCCN(Cc1nc(-c2ccc3c(c2)OCO3)no1)CC1CC1 : 2.703%
* O=C(CN1CCOC(Cn2cccn2)C1)NC(C1CC1)C1CC1 (stereo not shown) : 16.37%
* O=C(C1CCOC1)N1C[C@@H]2CCN(C(=O)c3cscn3)[C@@H]2C1 (stereo partly shown) : -31.69%
* COc1ccc(CNC(=O)CNc2cc3c(cc2Cl)OCCCO3)cc1 : 13.01%
* CC(C)CN1C[C@H]2CCN(C(=O)NC3CCCC3)CC[C@H]2S1(=O)=O : 17%
* CCC(=O)Nc1nnc(CCOc2cccc(OC)c2)s1 : 5.394%
* O=C1CCC2(CCN(CC[C@H](O)c3ccccc3)CC2)CN1CCO : -1.25%
* COc1c(C)cnc(CN2CCOC(CNc3cccnn3)C2)c1C (stereo not shown) : 13.25%
* CCN(Cc1cc(Cl)c(O)c(OC)c1)Cc1nc(COC)no1 : 5.882%
* COc1cc(NC(=O)NCC2CCCO2)cc(OC)c1OC (stereo not shown) : 23.57%
* Cc1cccc(CN2CCc3ncnc(C4CC4)c3CC2)n1 : 22.7%
* COc1ccc(C)cc1CN(CC(N)=O)C(C)C : 8.659%
* Fc1ccccc1-c1noc2c1CN(CC1CC1)CC2 : 16.26%
* CC(=O)N1CCc2nc(N3CCCC3)nc(C)c2C1 : 8.013%
* Cc1ccc(CNCC2CCc3nnc(C(C)C)n3C2)s1 (stereo not shown) : 12.39%
* O=C(c1cccc2ccnn12)N1CCCC1Cn1cccn1 (stereo not shown) : 7.627%
* Cc1nc(C)c(CC(=O)N2C[C@H]3CC[C@@H]2CN(c2cnccn2)C3)s1 : 9.025%
* COc1cccc(CN2CCC(c3cc(O)nc(C)n3)C2)c1 (stereo not shown) : 16.1%
* O=C(C[S+]([O-])C1CCCC1)NCCOc1cccc(Cl)c1 (stereo not shown) : 16.43%
* CCCn1c(SCC(N)=O)nnc1-c1csc2c1CCCC2 : 11.29%
* CC(C)N1CCN(C(=O)c2[nH]nnc2Nc2ccccc2F)CC1 : 3.399%
* OC[C@H]1CCN(Cc2ccc3ccccc3n2)C[C@@H]1O : 1.299%
* CCc1nnc(CN(CC)C(=O)C2CC(=O)N(C3CC3)C2)o1 (stereo not shown) : 4.604%
* CC(CNC(=O)c1ccc(Cl)cc1I)N1CCCC1 (stereo not shown) : 6.884%
* CN(CCO)c1nc(-c2ccccn2)nc2c1CCNC2 : 4.301%
* O=C1CCCC2=C1C(c1ccccc1Cl)Nc1nonc1N2 (stereo not shown) : 11.86%
* Cc1ccc(N2CCCN(C(=O)CCc3ccsc3)CC2)nn1 : 4.749%
* Cc1nc(-c2ccco2)ccc1C(=O)NCCC(=O)N1CCCCC1 : 15.57%
* CC(C)CCN1C2(CCN(C(=O)C3(C)CC3)C2)c2ccccc2S1(=O)=O (stereo not shown) : 9.589%
* CN(Cc1ccc([S+](C)[O-])cc1)c1ccc(Cl)cn1 (stereo not shown) : 2.594%
* CC(C)CS(=O)(=O)CC(=O)NC(C)c1nnc2n1CCC2 (stereo not shown) : 22.73%
* FC1(F)CCN(Cc2ccccn2)CC12CCN(c1cnccn1)C2 (stereo not shown) : 19.12%
* CC(C)c1nn(C)c(N2CCOCC2)c1CNC(C)c1cccs1 (stereo not shown) : 16.54%
* CC(C)c1nn(C)cc1CNCc1cccnc1N(C)C : 5.866%
* CCN(Cc1ccc(Cl)s1)S(=O)(=O)CC : 8.011%
* Cc1nn(C)c(C)c1CCC(=O)Nc1cn(C)c(=O)n(C)c1=O : 19.22%
* N#CCSCCCN1CCN(C(=O)c2ccccc2F)CC1 : 17.18%
* Cc1nccc(C2CCCN(S(=O)(=O)N3CCOCC3)C2)n1 (stereo not shown) : 3.738%
* Clc1ccc(-c2cnc(CNC3CCc4ncnn4C3)o2)cc1 (stereo not shown) : 13.53%
* CCc1ccc(C(=O)N(c2cccnc2)C(C)C)cc1S(C)(=O)=O : 10.47%
* CN(C)C(=O)c1ccn(-c2ccc3ccccn23)n1 : 14.79%
* O=C(C[C@@H]1COC[C@H]2CN(Cc3ccsc3)C[C@@H]12)N1CCCC1 : 13.33%
* OCCCN1CCCC1c1ccc(Br)cc1 (stereo not shown) : 13.09%
* Cc1cnn(C2CCCN(C(=O)c3cc(C4CC4)on3)C2)c1 (stereo not shown) : 12.27%
* CC(C)N(C)Cc1cnc2n1CCN(Cc1cccc(C#N)c1)C2 : 9.051%
* Cc1nn(CCn2ccnc2-c2cc3n(n2)CCCNC3)c(C)c1Cl : 14.63%
* COc1ccc(CCC(=O)NC2CCC(O)CC2)cc1OC (stereo not shown) : 14.96%

Repeated from the top, 5 entries:

SMILES	Inhibition
CCOc1ccccc1CNC(=O)Cn1ccc2c(C)nn(C)c2c1=O	14.73
OCCN(Cc1nc(-c2ccc3c(c2)OCO3)no1)CC1CC1	2.703
O=C(CN1CCOC(Cn2cccn2)C1)NC(C1CC1)C1CC1 (stereo not shown)	16.37
O=C(C1CCOC1)N1C[C@@H]2CCN(C(=O)c3cscn3)[C@@H]2C1 (stereo partly shown)	-31.69
COc1ccc(CNC(=O)CNc2cc3c(cc2Cl)OCCCO3)cc1	13.01